# Laboratory results published in the supplement of paper PMC8728848.
# The other results are listed elsewhere or left out.
# B1: SJCP3842 (Schistosoma japonicum) (protein)
# chain: MFKMRIINLVNISTVLLLINLLQTKSRLVGKENGFMLTVSIYGAQLSDKMTSVPVSWTIDYEDPEKSAFKKLVTDSCDTFSEYVKSQIPKGSVDGQCTSHIFQRPGSGSGVSISLTLSFIYVDVTQPDTVALKTELEKHFANFVTIHSHKITQAQFRINQKAIVIPTGDKDAIDGSKWKIIAIIALVALAIVVIGGFIYICVK
# How the values were obtained:
# Experiment in all cases: glycan array binding signal (z-score within array); higher = stronger binding
# Details in all cases: glycan notation: IUPAC condensed, linker removed
# Fuc(a1-3)GlcNAc = molecular target: Fuc(a1-3)GlcNAc
# In short: (§1)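 Glycan array data came from 3228 arrays in the Consortium for Functional Glycomics database, and only arrays with an available protein sequence were kept. Glycan names were put into IUPAC-condensed notation, and columns mapping to the same glycan were averaged. The binding signal is a within-array Z-score, averaged across arrays of one protein sequence run at different concentrations or buffers and across linkers. A negative Z-score can be read as non-binding.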
# [1] = molecular target: Fuc(a1-3)[Gal(b1-4)]Glc6S
# In short: as §1
# [2] = molecular target: Fuc(a1-3)[Gal(b1-4)]GlcNAc
# In short: as §1
# [3] = molecular target: Fuc(a1-3)[Gal(b1-4)]GlcNAc(b1-2)Man
# In short: as §1
# [4] = molecular target: Fuc(a1-3)[Gal(b1-4)]GlcNAc(b1-2)Man(a1-3)[Fuc(a1-3)[Gal(b1-4)]GlcNAc(b1-2)Man(a1-6)]Man(b1-4)GlcNAc(b1-4)GlcNAc
# In short: as §1
# [5] = molecular target: Fuc(a1-3)[Gal(b1-4)]GlcNAc(b1-2)Man(a1-3)[Fuc(a1-3)[Gal(b1-4)]GlcNAc(b1-2)Man(a1-6)]Man(b1-4)GlcNAc(b1-4)[Fuc(a1-6)]GlcNAc
# In short: as §1
# [6] = molecular target: Fuc(a1-3)[Gal(b1-4)]GlcNAc(b1-3)Gal(b1-3)[Fuc(a1-4)]GlcNAc
# In short: as §1
# [7] = molecular target: Fuc(a1-3)[Gal(b1-4)]GlcNAc(b1-3)Gal(b1-4)[Fuc(a1-3)]GlcNAc
# In short: as §1
# [8] = molecular target: Fuc(a1-3)[Gal(b1-4)]GlcNAc(b1-3)Gal(b1-4)[Fuc(a1-3)]GlcNAc(b1-3)Gal(b1-4)[Fuc(a1-3)]GlcNAc
# In short: as §1
# [9] = molecular target: Fuc(a1-3)[Gal(b1-4)]GlcNAc(b1-3)GalNAc
# In short: as §1
# [10] = molecular target: Fuc(a1-3)[Gal(b1-4)]GlcNAc(b1-6)GalNAc
# In short: as §1
# [11] = molecular target: Fuc(a1-3)[Gal(b1-4)]GlcNAc(b1-6)[Gal(b1-3)GlcNAc(b1-3)]Gal(b1-4)Glc
# In short: as §1
# [12] = molecular target: Fuc(a1-3)[Gal(b1-4)]GlcNAc6S
# In short: as §1
# [13] = molecular target: Fuc(a1-3)[Gal3S(b1-4)]Glc
# In short: as §1
# [14] = molecular target: Fuc(a1-3)[Gal3S(b1-4)]GlcNAc
# In short: as §1
# [15] = molecular target: Fuc(a1-3)[Gal3S(b1-4)]GlcNAc6S
# In short: as §1
# [16] = molecular target: Fuc(a1-3)[GalNAc(b1-4)]GlcNAc
# In short: as §1
# [17] = molecular target: Fuc(a1-3)[GalNAc(b1-4)]GlcNAc6S
# In short: as §1
# Fuc(a1-4)GlcNAc = molecular target: Fuc(a1-4)GlcNAc
# In short: as §1
# Fuc(b1-3)GlcNAc = molecular target: Fuc(b1-3)GlcNAc
# In short: as §1
# Gal(a1-2)Gal = molecular target: Gal(a1-2)Gal
# In short: as §1
# Gal(a1-3)Gal = molecular target: Gal(a1-3)Gal
# In short: as §1
# Gal(a1-3)Gal(b1-3)GlcNAc = molecular target: Gal(a1-3)Gal(b1-3)GlcNAc
# In short: as §1
# [18] = molecular target: Gal(a1-3)Gal(b1-3)GlcNAc(b1-2)Man
# In short: as §1
# [19] = molecular target: Gal(a1-3)Gal(b1-3)GlcNAc(b1-2)Man(a1-3)[Gal(a1-3)Gal(b1-3)GlcNAc(b1-2)Man(a1-6)]Man(b1-4)GlcNAc(b1-4)GlcNAc
# In short: as §1
# [20] = molecular target: Gal(a1-3)Gal(b1-3)GlcNAc(b1-3)GalNAc
# In short: as §1
# [21] = molecular target: Gal(a1-3)Gal(b1-3)GlcNAc(b1-6)GalNAc
# In short: as §1
# [22] = molecular target: Gal(a1-3)Gal(b1-3)[Fuc(a1-4)]GlcNAc(b1-2)Man(a1-3)[Gal(a1-3)Gal(b1-3)[Fuc(a1-4)]GlcNAc(b1-2)Man(a1-6)]Man(b1-4)GlcNAc(b1-4)GlcNAc
# In short: as §1
# Gal(a1-3)Gal(b1-4)Glc = molecular target: Gal(a1-3)Gal(b1-4)Glc
# In short: as §1
# Gal(a1-3)Gal(b1-4)GlcNAc = molecular target: Gal(a1-3)Gal(b1-4)GlcNAc
# In short: as §1
# [23] = molecular target: Gal(a1-3)Gal(b1-4)GlcNAc(b1-2)Man
# In short: as §1
# [24] = molecular target: Gal(a1-3)Gal(b1-4)GlcNAc(b1-2)Man(a1-3)[Gal(a1-3)Gal(b1-4)GlcNAc(b1-2)Man(a1-6)]Man(b1-4)GlcNAc(b1-4)GlcNAc
# In short: as §1
# [25] = molecular target: Gal(a1-3)Gal(b1-4)GlcNAc(b1-3)GalNAc
# In short: as §1
# [26] = molecular target: Gal(a1-3)Gal(b1-4)GlcNAc(b1-6)GalNAc
# In short: as §1
# [27] = molecular target: Gal(a1-3)Gal(b1-4)[Fuc(a1-3)]GlcNAc
# In short: as §1
# [28] = molecular target: Gal(a1-3)Gal(b1-4)[Fuc(a1-3)]GlcNAc(b1-2)Man(a1-3)[Gal(a1-3)Gal(b1-4)[Fuc(a1-3)]GlcNAc(b1-2)Man(a1-6)]Man(b1-4)GlcNAc(b1-4)GlcNAc
# In short: as §1
# Gal(a1-3)GalNAc = molecular target: Gal(a1-3)GalNAc
# In short: as §1
# [29] = molecular target: Gal(a1-3)[Gal(a1-4)]Gal(b1-4)GlcNAc
# In short: as §1
# [30] = molecular target: Gal(a1-4)Gal(b1-3)GlcNAc(b1-2)Man(a1-3)[Gal(a1-4)Gal(b1-3)GlcNAc(b1-2)Man(a1-6)]Man(b1-4)GlcNAc(b1-4)GlcNAc
# In short: as §1
# Gal(a1-4)Gal(b1-4)Glc = molecular target: Gal(a1-4)Gal(b1-4)Glc
# In short: as §1
# Gal(a1-4)Gal(b1-4)GlcNAc = molecular target: Gal(a1-4)Gal(b1-4)GlcNAc
# In short: as §1
# [31] = molecular target: Gal(a1-4)Gal(b1-4)GlcNAc(b1-2)Man(a1-3)[Gal(a1-4)Gal(b1-4)GlcNAc(b1-2)Man(a1-6)]Man(b1-4)GlcNAc(b1-4)GlcNAc
# In short: as §1
# [32] = molecular target: Gal(a1-4)Gal(b1-4)GlcNAc(b1-3)Gal(b1-4)Glc
# In short: as §1
# Gal(a1-4)GlcNAc = molecular target: Gal(a1-4)GlcNAc
# In short: as §1
# Gal(a1-6)Glc = molecular target: Gal(a1-6)Glc
# In short: as §1
binder,measurement,setting,value
B1,glycan array binding signal (z-score),Fuc(a1-3)GlcNAc,0.264
same,glycan array binding signal (z-score),[1],0.102
same,glycan array binding signal (z-score),[2],-0.817
same,glycan array binding signal (z-score),[3],-0.894
same,glycan array binding signal (z-score),[4],-1.89
same,glycan array binding signal (z-score),[5],0.64
same,glycan array binding signal (z-score),[6],0.001
same,glycan array binding signal (z-score),[7],2.06
same,glycan array binding signal (z-score),[8],-0.987
same,glycan array binding signal (z-score),[9],-0.492
same,glycan array binding signal (z-score),[10],-0.138
same,glycan array binding signal (z-score),[11],0.354
same,glycan array binding signal (z-score),[12],1.02
same,glycan array binding signal (z-score),[13],-0.384
same,glycan array binding signal (z-score),[14],0.529
same,glycan array binding signal (z-score),[15],0.041
same,glycan array binding signal (z-score),[16],1.98
same,glycan array binding signal (z-score),[17],-0.719
same,glycan array binding signal (z-score),Fuc(a1-4)GlcNAc,4.44
same,glycan array binding signal (z-score),Fuc(b1-3)GlcNAc,0.984
same,glycan array binding signal (z-score),Gal(a1-2)Gal,-0.873
same,glycan array binding signal (z-score),Gal(a1-3)Gal,0.544
same,glycan array binding signal (z-score),Gal(a1-3)Gal(b1-3)GlcNAc,-1.36
same,glycan array binding signal (z-score),[18],-0.278
same,glycan array binding signal (z-score),[19],3.31
same,glycan array binding signal (z-score),[20],0.153
same,glycan array binding signal (z-score),[21],1.28
same,glycan array binding signal (z-score),[22],2.45
same,glycan array binding signal (z-score),Gal(a1-3)Gal(b1-4)Glc,-0.327
same,glycan array binding signal (z-score),Gal(a1-3)Gal(b1-4)GlcNAc,-0.944
same,glycan array binding signal (z-score),[23],-1.09
same,glycan array binding signal (z-score),[24],-0.76
same,glycan array binding signal (z-score),[25],-0.487
same,glycan array binding signal (z-score),[26],-0.327
same,glycan array binding signal (z-score),[27],0.63
same,glycan array binding signal (z-score),[28],-0.183
same,glycan array binding signal (z-score),Gal(a1-3)GalNAc,-1
same,glycan array binding signal (z-score),[29],0.71
same,glycan array binding signal (z-score),[30],-0.112
same,glycan array binding signal (z-score),Gal(a1-4)Gal(b1-4)Glc,-1.04
same,glycan array binding signal (z-score),Gal(a1-4)Gal(b1-4)GlcNAc,0.115
same,glycan array binding signal (z-score),[31],2.55
same,glycan array binding signal (z-score),[32],-0.72
same,glycan array binding signal (z-score),Gal(a1-4)GlcNAc,-1.21
same,glycan array binding signal (z-score),Gal(a1-6)Glc,-1.59

# Laid out differently: entries from further up
binder | measurement | setting | value
B1 | glycan array binding signal (z-score) | [15] | 0.041
same | glycan array binding signal (z-score) | [30] | -0.112
